From the supplement of paper PMC8326762, “A Small Molecule Inhibitor of Pex3–Pex19 Interaction Disrupts Glycosome Biogenesis and Causes Lethality in Trypanosoma brucei” (Frontiers in Cell and Developmental Biology, 2021)
Counter-ions that a name gives are not always drawn. Some of the results follow. Single values of this set are uncertain.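 Yeast growth was read as optical density at 600 nm. The two-hybrid strains grew without histidine, so growth needed the Pex3–Pex19 binding; a compound counted as trypanosome-selective if it cut growth of the trypanosome-pair strain by more than 65% and the human-pair strain by less than 65%.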

System: Saccharomyces cerevisiae HF7c pdr5Δ
Test: general growth inhibition of yeast HF7c pdr5Δ in -Leu -Trp medium, relative to DMSO; higher = stronger general growth inhibition
Settings: 100 µM; 24 h

Q: For CN=c1nc(-c2ccccc2)n(-c2ccccc2)s1, which general growth inhibition is on record?
A: 70.1%

Q: For CN1CCC(=C2c3ccccc3C=Cc3ccccc32)CC1 [Cyproheptadine hydrochloride], which general growth inhibition is on record?
A: 33.5%

Q: Which general growth inhibition does the source give for C=C[C@H]1CN2CC[C@H]1C[C@H]2[C@H](O)c1ccnc2ccc(OC)cc12 [Quinine sulfate] here?
A: 50.3%

Q: Which general growth inhibition does the source give for O=C1CCC(N2C(=O)c3ccccc3C2=O)C(=O)N1 (racemic) [(±)-Thalidomide] here?
A: 47%

Q: For CN1CCc2cccc3c2[C@H]1Cc1ccc(O)c(O)c1-3 [Apomorphine hydrochloride hemihydrate], which general growth inhibition is on record?
A: 29%

Q: For C1COC(NC(C2CC2)C2CC2)=N1 [Rilmenidine hemifumarate], which general growth inhibition is on record?
A: 48.8%

Q: CN(C)CCCN1c2ccccc2CCc2ccc(Cl)cc21 [Clomipramine hydrochloride] was tested. Which general growth inhibition did it give?
A: 18%

Q: C[C@](N)(Cc1ccc(O)cc1)C(=O)O [L-alpha-Methyl-p-tyrosine] was tested. Which general growth inhibition did it give?
A: 44.3%

Q: Which general growth inhibition does the source give for COc1ccccc1N1CCN(CCCCN2C(=O)c3ccccc3C2=O)CC1 [NAN-190 hydrobromide] here?
A: 5.15%

Q: Which general growth inhibition does the source give for Fc1ccc(C(c2ccc(F)cc2)N2CCN(C/C=C/c3ccccc3)CC2)cc1 [Flunarizine dihydrochloride] here?
A: 86.2%

Q: With CC1(C)NC(=O)N(c2ccc([N+](=O)[O-])c(C(F)(F)F)c2)C1=O [Nilutamide] as the compound, how does the general growth inhibition read?
A: 4.73%

Q: How did the general growth inhibition turn out when Oc1cc2c(cc1O)CN(C(=S)NCCc1ccc(Cl)cc1)CCC2 [Capsazepine] was run?
A: 28.3%

Q: CN1CCC[C@@H]1CCO[C@](C)(c1ccccc1)c1ccc(Cl)cc1 [Clemastine fumarate] was tested. Which general growth inhibition did it give?
A: 37.9%

Q: For CCOc1nc2cccc(C(=O)OC(C)OC(=O)OC3CCCCC3)c2n1Cc1ccc(-c2ccccc2-c2nn[nH]n2)cc1 (centres undefined) [Candesartan cilexetil], which general growth inhibition is on record?
A: 37.6%

Q: How did the general growth inhibition turn out when NCCc1ccc(O)c(O)c1 [Dopamine hydrochloride] was run?
A: 42.1%

Q: For NCCS [Cysteamine hydrochloride], which general growth inhibition is on record?
A: 52.9%

Q: Which general growth inhibition does the source give for O=c1cc(-c2ccc(O)cc2)oc2cc(O)cc(O)c12 [Apigenin] here?
A: 39.2%

Q: For NC(=O)C(=O)O [Sodium Oxamate], which general growth inhibition is on record?
A: 55%

Q: For COc1ccccc1N1CCN(CCCNc2cc(=O)n(C)c(=O)n2C)CC1 [Urapidil hydrochloride], which general growth inhibition is on record?
A: 53.8%

Q: Which general growth inhibition does the source give for Nc1nc(=O)c(Br)c(-c2ccccc2)[nH]1 [Bropirimine] here?
A: 40%

Q: With CC1=C(C)C(=O)C(CCCCC#CCCCC#CCO)=C(C)C1=O as the compound, how does the general growth inhibition read?
A: 77.2%

Q: For CCCC(C(=O)OCCN(CC)CC)(c1ccccc1)c1ccccc1 [SKF-525A hydrochloride], which general growth inhibition is on record?
A: 42.6%

Q: With CC(C)(Oc1ccc(C2CC2(Cl)Cl)cc1)C(=O)O (centres undefined) [Ciprofibrate] as the compound, how does the general growth inhibition read?
A: 28.9%

Q: For CCCCCN(C)CCC(O)(P(=O)(O)O)P(=O)(O)O [Ibandronate sodium], which general growth inhibition is on record?
A: 42.6%

Q: Which general growth inhibition does the source give for NC1(C(=O)O)CC1 [1-Aminocyclopropanecarboxylic acid hydrochloride] here?
A: 32.3%

Q: How did the general growth inhibition turn out when Cn1cc(C(=O)OCC2CCN(CCNS(C)(=O)=O)CC2)c2ccccc21 was run?
A: 35%

Q: With COc1ccc(C(=O)NCc2cccnc2)cc1C(=O)NCc1cccnc1 [Picotamide] as the compound, how does the general growth inhibition read?
A: 54%

Q: How did the general growth inhibition turn out when CC(C(=O)O)c1ccc(CC2CCCC2=O)cc1 (centres undefined) [loxoprofen] was run?
A: 43.4%

Q: For CC(=O)OCC(CCn1cnc2cnc(N)nc21)COC(C)=O [Famciclovir], which general growth inhibition is on record?
A: 31.1%

Q: How did the general growth inhibition turn out when O=c1cc(O)cc(/C=C/c2ccc(O)c(O)c2)o1 [Hispidin] was run?
A: 7.12%

Q: How did the general growth inhibition turn out when CC(C)C[C@H](NC(=O)[C@H]1O[C@@H]1C(=O)O)C(=O)NCCCCN=C(N)N was run?
A: 19.2%

Q: How did the general growth inhibition turn out when C[C@]12C[C@H](O)[C@H]3[C@@H](CCC4=CC(=O)CC[C@@]43C)[C@@H]1CC[C@@H]2C(=O)CO [Corticosterone] was run?
A: 43.3%

Q: With COc1cc([C@@H]2c3cc4c(cc3[C@@H](O[C@@H]3O[C@@H]5CO[C@@H](C)O[C@H]5[C@H](O)[C@H]3O)[C@H]3COC(=O)[C@H]23)OCO4)cc(OC)c1O [Etoposide] as the compound, how does the general growth inhibition read?
A: 14.6%

Q: Cc1ccc(S(=O)(=O)/C=C/C#N)cc1 was tested. Which general growth inhibition did it give?
A: 91.3%

Q: How did the general growth inhibition turn out when CN(C)CCCN1c2ccccc2CCc2ccccc21 [Imipramine hydrochloride] was run?
A: 35.7%

Q: With CC(C)NNC(=O)c1ccncc1 [Iproniazid phosphate] as the compound, how does the general growth inhibition read?
A: 20.4%

Q: How did the general growth inhibition turn out when NNCCc1ccccc1 [Phenelzine sulfate] was run?
A: 50.5%

Q: Cc1ccc(-c2cc(C(F)(F)F)nn2-c2ccc(S(N)(=O)=O)cc2)cc1 [Celecoxib] was tested. Which general growth inhibition did it give?
A: 9.83%

Q: Which general growth inhibition does the source give for CO[C@@]1(NC(=O)CSCC#N)C(=O)N2C(C(=O)O)=C(CSc3nnnn3C)CS[C@@H]21 [Cefmetazole sodium] here?
A: 44.3%
